In PubChem BioAssay AID2685 (National Center for Advancing Translational Sciences (NCATS), 2010):
Some of the results follow. Further columns of the screen follow, without active or inactive calls. The list favours compounds with an active or inconclusive main result. The note in brackets gives the kind of curve behind each potency; many fits are weak.

Test: qHTS Assay for Lipid Storage Modulators in Drosophila S3 Cells;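 for cell number change: cells counted by Cell Tracker Red CMTPX staining in the red channel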
Settings: BODIPY lipid droplet fluorescence, 18-24 h; for cell number change: measured here: cell count max response, cells fed with added oleic acid
Method in brief: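 Laser-scanning cytometry quantifies lipid droplet accumulation (500–530 nm total intensity; droplet/cell object ratio) in oleic acid-fed (400 uM added) Drosophila S3 cells treated with a concentration series. 20 uM Triacsin C defined 100% inhibition.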

[1] = measured here: lipid fluorescence (Fed channel) AC50, cells fed with added oleic acid
[2] = measured here: cell number channel AC50, cells fed with added oleic acid

| SMILES | cell number change [%] | AC50 [1] | AC50 [2] |
| --- | --- | --- | --- |
| COc1ccc(S(=O)(=O)n2nc(OC(=O)c3ccccc3)cc2N)cc1 | 5.81 | 20.6 µM [falling, single point] | – |
| c1csc(-c2nn3c(Cn4cnc5ccccc54)nnc3s2)c1 | 76.4 | 6.51 µM [rising, single point] | 9.2 µM [rising, partial curve] |
| CCOC(=O)c1cccc(NC(=O)C2CCCN2S(=O)(=O)c2cccc3cccnc23)c1 (stereo not given) | – | 2.31 µM [rising, partial curve] | 0.13 µM [rising, full curve, poor fit] |
| CN(C)S(=O)(=O)c1ccc(NC(=O)c2ccc(Br)o2)cc1 | -11.2 | 29.1 µM [rising, partial curve] | 6.51 µM [rising, single point] |
| COc1ccccc1CNC(=S)Nc1ccc(F)cc1 | -1.09 | – | – |
| c1ccc(Oc2nc(Oc3ccccc3)nc(N3CCOCC3)n2)cc1 | 28.3 | 20.6 µM [rising, partial curve] | – |
| Cc1cccc(NC(=O)C[n+]2ccccc2)c1 | 16.7 | – | – |
| Cc1csc(NC(=O)c2c(O)c3c(n(CC(C)C)c2=O)CCCC3)n1 | – | – | 1.3 µM [rising, full curve] |
| COc1cc2nc(NC(=O)c3ccccc3)[nH]c(=O)c2cc1OC | -8.05 | 16.4 µM [falling, single point] | – |
| CCc1sc(C(=O)N2CCCN(C)CC2)cc1Br | 9.68 | – | – |
| O=[N+]([O-])c1ccc(NNC(=S)Nc2ccccc2)cc1 | -46.2 | – | 2.91 µM [rising, partial curve] |
| Cn1cccc1Cc1nnc(SCC(=O)NC2CCCCC2)n1-c1ccc(F)cc1 | 76.3 | 0.164 µM [rising, full curve, poor fit] | 20.6 µM [rising, single point] |
| Cc1nc(N2CCOCC2)nc2c1CCCC2 | -26 | 20.6 µM [falling, partial curve] | – |
| CCOc1ccc(CCNC(=O)CSCC(=O)Nc2cccc(C)c2)cc1OCC | 108 | 3.66 µM [falling, partial curve] | 20.6 µM [rising, single point] |
| CCC(C)(C)NC(=O)C(c1ccc(OC)cc1)N(Cc1cccs1)C(=O)CCC(=O)Nc1cc(C)on1 (stereo not given) | -36.2 | 29.1 µM [falling, partial curve] | 29.1 µM [falling, single point] |
| CCCCn1c(N)c(N(CCC(C)C)C(=O)CN2C(=O)C3CCCCC3C2=O)c(=O)[nH]c1=O (stereo not given) | – | 1.26 µM [rising, full curve, poor fit] | – |
| COc1ccc(C(=O)N(C)C2CCCCC2)cc1S(=O)(=O)N1CCOCC1 | 18.4 | 0.103 µM [rising, full curve, poor fit] | 0.082 µM [rising, full curve, poor fit] |
| Cn1cc(CN(CCCN2CCOCC2)C(=S)Nc2cccc(Cl)c2)c2ccccc21 | -0.731 | 0.411 µM [rising, full curve, poor fit] | – |
| Cc1ccc(N=Nc2c(O)[nH]c3ccc(F)cc23)cc1 | – | 8.2 µM [falling, partial curve, poor fit] | – |
| O=C(NC1CCN(C(=O)NC2CCCCC2)CC1)c1ccco1 | -37.9 | 14.6 µM [falling, partial curve] | 13 µM [falling, partial curve] |
| CN1CCC(NC(=O)c2ccncc2)CC1 | -22.4 | 0.00461 µM [falling, full curve, poor fit] | 0.00651 µM [falling, full curve, poor fit] |

Single records, from the list above.
c1csc(-c2nn3c(Cn4cnc5ccccc54)nnc3s2)c1 in the list: cell number change [%]: 76.4; AC50 [1]: 6.51 µM [rising, single point]; AC50 [2]: 9.2 µM [rising, partial curve]
O=C(NC1CCN(C(=O)NC2CCCCC2)CC1)c1ccco1 in the list: cell number change [%]: -37.9; AC50 [1]: 14.6 µM [falling, partial curve]; AC50 [2]: 13 µM [falling, partial curve]
COc1ccc(S(=O)(=O)n2nc(OC(=O)c3ccccc3)cc2N)cc1 in the list: cell number change [%]: 5.81; AC50 [1]: 20.6 µM [falling, single point]
Cc1cccc(NC(=O)C[n+]2ccccc2)c1 in the list: cell number change [%]: 16.7

Additional records follow.

| SMILES | cell number change [%] | AC50 [1] | AC50 [2] |
| --- | --- | --- | --- |
| O=C(COc1ccc(F)cc1)Nc1nnc(S(=O)(=O)N2CCCC2)s1 | -1.2 | 29.1 µM [rising, single point] | – |
| COc1ccc(NC(=O)CN(C)C(=O)C2CCCO2)cc1 (stereo not given) | 12.6 | – | – |
| CCN(CC)S(=O)(=O)c1ccc2[nH]c(=O)cc(C(=O)Nc3ccc(C)cc3)c2c1 | 5.41 | – | 0.00461 µM [rising, full curve, poor fit] |
| O=C(COC(=O)c1cccnc1Cl)c1ccc(F)cc1 | -25.7 | – | – |
| O=C(N/N=C/c1ccncc1)C12CC3CC(CC(C3)C1)C2 | -27.4 | 5.17 µM [falling, full curve, poor fit] | – |
| Cc1ccc2c(C(=O)CN3CCCC3)c(C)[nH]c2c1 | 13.1 | 2.06 µM [rising, partial curve] | – |
| CC(C)CCNC(=O)[C@H](CC(C)C)NC(=O)[C@H]1O[C@@H]1C(=O)O | -15.8 | 25.9 µM [falling, single point] | – |
| Cc1onc(-c2c(Cl)cccc2Cl)c1C(=O)NCCc1ccncc1 | 18.1 | – | 3.26 µM [rising, single point] |
| COc1cc(OC)cc(-c2cc(N)n(S(=O)(=O)Cc3ccccc3)n2)c1 | 1.47 | 0.146 µM [rising, full curve, poor fit] | – |
| O=C1/C(=N\S(=O)(=O)c2cccs2)C([n+]2ccc(CCCc3ccccc3)cc2)=C([O-])c2ccccc21 | -55.3 | – | 29.1 µM [falling, partial curve, poor fit] |
| Cc1ccc(S(=O)(=O)N2Cc3ccccc3CC2C(=O)Nc2cc(C)on2)cc1 (stereo not given) | -3.67 | 0.651 µM [falling, single point] | – |
| Cc1ccc(Cl)cc1NC(=O)COC(=O)c1ccc(CN2CCCC2=O)cc1 | -16.5 | – | – |
| Cc1cccc(N/N=C(\C=N\N)C(=O)c2ccc(Br)cc2)c1 | -8.87 | – | 3.26 µM [rising, partial curve, poor fit] |
| COc1ccc(NC(=O)C23CC4CC(C2)CC(c2ccccc2)(C4)C3)c(OC)c1 | 9.71 | 0.82 µM [rising, full curve, poor fit] | – |
| CCN(CC)CCOc1ccccc1C(C)=O | – | 0.461 µM [falling, partial curve, poor fit] | – |
| Cc1cc2c(=O)n(NC(N)=O)c(C)nc2s1 | 5.46 | – | – |
| Cn1c(=O)c2c(nc(Br)n2Cc2ccc3ccccc3c2)n(C)c1=O | – | 16.4 µM [rising, partial curve] | – |
| COc1ccccc1NC(=O)Nc1nnc(C(C)c2ccccc2)s1 (stereo not given) | -19.4 | – | – |
| CC(=O)c1cccc(NC(=S)NC(=O)c2ccccc2)c1 | 24.9 | 9.2 µM [rising, partial curve] | – |
| CCC(C)NC(=O)COC(=O)c1oc2ccccc2c1CSc1ccc(Cl)cc1 (stereo not given) | 3.09 | 6.51 µM [rising, single point] | – |
| CC(C)Oc1ccc(/C=N/NC(=O)c2ccc(N(Cc3ccccc3)S(C)(=O)=O)cc2)cc1 | 30.7 | 0.0517 µM [falling, full curve, poor fit] | 29.1 µM [rising, single point] |

| SMILES | cell number change [%] | AC50 [1] | AC50 [2] |
| --- | --- | --- | --- |
| CCOc1ccc(N2C(=O)c3cccnc3C2Nc2ccc(OC)cc2)cc1 (stereo not given) | -13.1 | – | – |
| CCCn1c(SCC(=O)Nc2ccccc2C(=O)NC2CC2)n[nH]c1=O | -16 | 5.8 µM [falling, single point] | – |
| COc1ccccc1CNn1c(-c2cccc(C)c2)nc2ccccc2c1=O | – | 0.58 µM [rising, single point] | – |
| Cc1nc(N2CCN(C(c3ccccc3)c3ccccc3)CC2)[nH]c(=O)c1C | 4.01 | – | – |
| CCOc1ccc(-c2nc(S(=O)(=O)c3ccccc3)c(NCc3cccnc3)o2)cc1 | – | 0.58 µM [rising, full curve] | – |
| CN(CCOc1ccc(Br)cc1)C(=O)CNC(=O)c1ccc2ccccc2c1 | 11.2 | 0.00517 µM [rising, full curve, poor fit] | – |
| Cc1ccc(-n2c(C)nnc2SCC(=O)N(C)C2CCS(=O)(=O)C2)cc1 (stereo not given) | 1.47 | 18.4 µM [falling, partial curve, poor fit] | – |
| COc1ccc(C(=O)/C(=C/N(C)C)S(=O)(=O)c2ccccc2)cc1 | – | 0.13 µM [falling, full curve, poor fit] | 0.103 µM [falling, full curve, poor fit] |
| Cc1ccc(S(=O)(=O)N/N=C\c2ccc3c(c2)OCO3)c(C)c1 | 22.3 | 29.1 µM [rising, single point] | – |
| O=C(CN(Cc1ccco1)C(=O)CNS(=O)(=O)c1ccccc1)NCc1ccc(F)cc1 | -9.07 | 0.92 µM [falling, partial curve] | – |
| COc1ccccc1N1CCN(C(=O)C2CCN(S(=O)(=O)c3ccc4c(c3)CC(C)N4C(C)=O)CC2)CC1 (stereo not given) | – | – | 0.146 µM [falling, full curve, poor fit] |
| Cc1ccc2cc3cc(C(=O)N4CCCCCC4)oc3nc2c1 | – | – | 3.26 µM [rising, partial curve] |
| Cc1ccc(C)c(-c2csc(NC(=O)C3=COCCO3)n2)c1 | – | – | 6.51 µM [rising, single point] |
| Clc1nssc1=Nc1ccccc1 | -76 | 29.1 µM [falling, single point] | 29.1 µM [falling, single point] |
| Cc1ccccc1NC(=O)Cc1nc(COC(=O)c2ccc([N+](=O)[O-])cc2)cs1 | -12.5 | – | – |
| CC1(C(=O)NNC(=O)c2ccc(=O)oc2)CC1Br (stereo not given) | 31.6 | – | – |
| CC(C)Oc1ccc(NC(=O)C2CCCNC2=O)cc1 (stereo not given) | -9.75 | – | – |
| O=C(Oc1ccc2ccccc2c1Cl)N1CCCC1 | -24.7 | 10.3 µM [rising, partial curve, poor fit] | – |
| CCn1c(SCC(=O)c2c(N)n(C3CC3)c(=O)[nH]c2=O)nc2cc(S(N)(=O)=O)ccc21 | -43.6 | 5.8 µM [falling, full curve] | 6.51 µM [falling, full curve] |
